Reference: PMC7780675
These are yes or no findings as the source states them, for the method shown. Binding seen in cells or lysates may run through a third protein. Some results given as binding are weak or reduced against the parent protein; the word gives no strength.

By UniProt entry, the sequences of proteins in these tests, tags left out.
UniProt P16455: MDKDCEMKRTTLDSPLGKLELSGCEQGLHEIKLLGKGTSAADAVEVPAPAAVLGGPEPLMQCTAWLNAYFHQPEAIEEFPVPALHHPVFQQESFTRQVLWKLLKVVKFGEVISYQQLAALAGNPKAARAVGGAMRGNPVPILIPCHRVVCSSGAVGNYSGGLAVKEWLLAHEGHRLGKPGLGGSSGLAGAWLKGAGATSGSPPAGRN
UniProt P51587: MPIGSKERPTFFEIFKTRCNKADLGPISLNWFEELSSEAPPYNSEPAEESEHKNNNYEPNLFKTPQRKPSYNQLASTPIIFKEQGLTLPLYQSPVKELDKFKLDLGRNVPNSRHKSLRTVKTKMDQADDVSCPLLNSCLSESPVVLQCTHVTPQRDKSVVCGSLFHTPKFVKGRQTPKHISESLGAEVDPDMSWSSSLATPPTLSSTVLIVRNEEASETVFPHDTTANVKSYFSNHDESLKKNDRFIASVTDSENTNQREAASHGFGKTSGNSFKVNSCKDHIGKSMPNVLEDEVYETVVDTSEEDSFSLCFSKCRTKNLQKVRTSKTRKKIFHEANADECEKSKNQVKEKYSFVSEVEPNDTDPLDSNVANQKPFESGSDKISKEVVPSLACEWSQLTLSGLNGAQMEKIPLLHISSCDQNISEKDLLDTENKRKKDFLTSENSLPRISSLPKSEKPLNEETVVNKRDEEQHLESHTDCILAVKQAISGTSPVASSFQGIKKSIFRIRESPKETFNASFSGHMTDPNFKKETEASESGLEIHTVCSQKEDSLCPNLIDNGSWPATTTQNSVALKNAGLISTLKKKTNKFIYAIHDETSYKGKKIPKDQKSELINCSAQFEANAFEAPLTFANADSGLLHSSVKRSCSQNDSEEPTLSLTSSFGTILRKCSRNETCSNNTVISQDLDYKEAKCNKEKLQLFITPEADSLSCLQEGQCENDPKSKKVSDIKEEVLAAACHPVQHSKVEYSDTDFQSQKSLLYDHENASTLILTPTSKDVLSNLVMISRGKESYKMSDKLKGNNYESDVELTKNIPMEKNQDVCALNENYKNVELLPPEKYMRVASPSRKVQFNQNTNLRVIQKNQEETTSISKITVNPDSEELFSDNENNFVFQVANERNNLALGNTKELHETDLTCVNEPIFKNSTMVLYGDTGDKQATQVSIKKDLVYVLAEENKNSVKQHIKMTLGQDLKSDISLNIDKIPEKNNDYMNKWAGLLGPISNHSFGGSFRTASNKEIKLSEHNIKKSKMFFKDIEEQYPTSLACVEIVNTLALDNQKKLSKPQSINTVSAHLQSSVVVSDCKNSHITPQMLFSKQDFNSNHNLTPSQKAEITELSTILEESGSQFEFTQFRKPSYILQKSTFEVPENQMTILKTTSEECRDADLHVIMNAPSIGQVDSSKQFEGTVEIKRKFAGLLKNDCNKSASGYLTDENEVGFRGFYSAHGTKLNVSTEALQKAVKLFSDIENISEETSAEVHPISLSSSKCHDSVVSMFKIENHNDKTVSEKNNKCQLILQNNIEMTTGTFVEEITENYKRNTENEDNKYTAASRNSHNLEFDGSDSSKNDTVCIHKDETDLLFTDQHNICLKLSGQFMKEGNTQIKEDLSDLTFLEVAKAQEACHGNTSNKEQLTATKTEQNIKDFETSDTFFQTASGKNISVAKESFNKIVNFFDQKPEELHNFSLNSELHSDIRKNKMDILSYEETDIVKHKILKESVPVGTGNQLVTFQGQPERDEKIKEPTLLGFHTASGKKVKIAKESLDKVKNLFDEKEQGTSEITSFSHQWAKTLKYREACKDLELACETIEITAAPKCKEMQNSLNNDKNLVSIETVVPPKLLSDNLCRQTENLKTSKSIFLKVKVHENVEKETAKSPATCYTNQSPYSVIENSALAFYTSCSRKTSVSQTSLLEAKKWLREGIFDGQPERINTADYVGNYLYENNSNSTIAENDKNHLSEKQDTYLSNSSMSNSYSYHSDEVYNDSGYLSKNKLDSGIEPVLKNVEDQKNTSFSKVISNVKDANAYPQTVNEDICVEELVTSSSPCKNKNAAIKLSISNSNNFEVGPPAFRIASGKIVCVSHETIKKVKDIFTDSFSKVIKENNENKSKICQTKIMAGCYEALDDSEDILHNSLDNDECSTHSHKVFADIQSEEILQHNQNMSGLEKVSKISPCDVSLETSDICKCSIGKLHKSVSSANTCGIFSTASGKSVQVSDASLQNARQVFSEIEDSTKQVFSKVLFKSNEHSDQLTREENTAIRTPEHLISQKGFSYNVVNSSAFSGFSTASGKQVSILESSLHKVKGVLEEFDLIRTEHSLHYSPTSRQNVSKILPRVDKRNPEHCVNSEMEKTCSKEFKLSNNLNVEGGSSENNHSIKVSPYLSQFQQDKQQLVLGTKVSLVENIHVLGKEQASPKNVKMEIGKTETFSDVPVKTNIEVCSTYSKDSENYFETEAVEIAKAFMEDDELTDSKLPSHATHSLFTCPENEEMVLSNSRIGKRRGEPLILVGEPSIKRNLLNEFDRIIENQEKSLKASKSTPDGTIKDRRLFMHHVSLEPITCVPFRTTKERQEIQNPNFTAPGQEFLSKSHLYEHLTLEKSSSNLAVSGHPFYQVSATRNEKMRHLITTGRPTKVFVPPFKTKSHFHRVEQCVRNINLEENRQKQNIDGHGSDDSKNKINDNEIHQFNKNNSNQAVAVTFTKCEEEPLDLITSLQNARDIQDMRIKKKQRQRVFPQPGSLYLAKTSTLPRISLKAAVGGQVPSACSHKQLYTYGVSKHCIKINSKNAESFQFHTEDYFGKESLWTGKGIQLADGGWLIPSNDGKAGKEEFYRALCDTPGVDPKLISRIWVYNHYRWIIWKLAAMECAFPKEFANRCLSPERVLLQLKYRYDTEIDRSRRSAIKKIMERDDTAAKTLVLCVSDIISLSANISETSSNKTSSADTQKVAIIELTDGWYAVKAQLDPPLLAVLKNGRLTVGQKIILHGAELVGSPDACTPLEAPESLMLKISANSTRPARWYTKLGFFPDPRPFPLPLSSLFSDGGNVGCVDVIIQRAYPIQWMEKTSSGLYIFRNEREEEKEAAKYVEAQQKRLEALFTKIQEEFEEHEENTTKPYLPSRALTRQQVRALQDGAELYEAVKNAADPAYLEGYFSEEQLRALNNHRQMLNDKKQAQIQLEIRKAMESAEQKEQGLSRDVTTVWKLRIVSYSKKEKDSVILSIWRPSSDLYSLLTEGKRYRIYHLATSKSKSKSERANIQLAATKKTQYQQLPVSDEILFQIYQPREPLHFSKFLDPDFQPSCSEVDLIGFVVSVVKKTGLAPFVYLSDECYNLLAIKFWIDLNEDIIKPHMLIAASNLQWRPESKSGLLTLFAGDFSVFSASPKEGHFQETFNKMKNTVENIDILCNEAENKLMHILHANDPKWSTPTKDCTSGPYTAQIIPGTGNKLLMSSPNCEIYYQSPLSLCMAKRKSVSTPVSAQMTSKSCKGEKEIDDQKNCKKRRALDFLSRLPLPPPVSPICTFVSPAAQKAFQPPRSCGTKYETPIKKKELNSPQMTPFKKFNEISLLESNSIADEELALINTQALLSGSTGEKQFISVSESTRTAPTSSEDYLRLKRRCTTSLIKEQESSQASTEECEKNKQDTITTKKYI

Target: O6-methylguanine-DNA methyltransferase (human (endogenous in HONE-1 and TW01)) (UniProt P16455)
Assay: co-IP; lysates of HONE-1 and TW01 cells, with or without 10 µM CDDP for 8 h; 20 U/ml DNase I in the lysis buffer, sonicated; precipitated with anti-MGMT antibodies (1 µg/mL) or negative control IgG, Protein A/G resin; Western blot

In the case of BRCA2 (from UniProt P51587 1-3418), the binding is reported as “binds”.
